# Results as given in patent US20150307883.
# For some assays here: Where cells or extracts were used, other partners may take part. For some assays here: The exact form of at least one protein or probe is not confirmed. For some assays here: No signal at the amounts used counts as a negative.
# Tests used:
# [1] = molecular target: ErbB-2 (HER2), native (Homo sapiens) (UniProt P04626); assay: pull-down; conditions: protein in an extract, label: biotin, single-stranded DNA
# [2] = molecular target: ErbB-1 (EGFR) (Homo sapiens) (UniProt P00533); assay: pull-down; conditions: A431 extract; detection with ErbB-2 kinase domain antiserum; protein in an extract; protein details: endogenous, overexpressed in A431 cell extract; label: biotin; single-stranded DNA
# [3] = molecular target: ErbB-2 (HER2), cell surface on N87 cells (Homo sapiens) (UniProt P04626); assay: activity in cells; conditions: protein on the cell surface, protein details: endogenous, single-stranded DNA
# [4] = molecular target: ErbB-2 (HER2), cell surface on N87 cells (Homo sapiens) (UniProt P04626); assay: flow cytometry; conditions: 1 uM, 4 C, 30 min, protein on the cell surface, protein details: endogenous, label: biotin, single-stranded DNA
# [5] = molecular target: ErbB-2 (HER2), native (Homo sapiens) (UniProt P04626); assay: binding assay; conditions: double immunoblot of N87 extract, 100 nM aptamer; protein in an extract; label: biotin; single-stranded DNA
# [6] = molecular target: ErbB-2 (HER2), native (Homo sapiens) (UniProt P04626); assay: ELONA; conditions: 0-100 nM titration on antibody-captured ErbB-2; competed by unlabelled 2-2(t) (FIG. 2B); also positive in dot blot and pull-down, improved over monomer (FIG. 4A, 4C); protein in an extract; label: biotin; single-stranded DNA; variant of 2-2
sequence,measurement,setting,value
GCAGCGGTGTGGGG [2-2],binding result,"[1]; pull-down from N87 extract, 4 C, also positive in double immunoblot at 100 nM, very faint or no signal in dot blot (FIG. 4A)",binds
same,binding result,[2],no binding
AGATTGCACTTACTATCTAGATTGCACTTACTATCTAGATTGCACTTACTATCT [PR(t) trimeric control primer (identity of primer inferred)],binding result,[1],no binding
same,functional effect of the aptamer,[3]; no effect on ErbB-2 stability or N87 proliferation at 10 uM,not active
same,binding result,[4],no binding
GGGCTGGTGTGGCGG [2-1],binding result,[5],binds
GCAGCGGTGTGGGGGCAGCGGTGTGGGGGCAGCGGTGTGGGG [2-2(t) trimeric aptamer],functional effect of the aptamer,"[3]; induces ErbB-2 internalization and lysosomal degradation, inhibits N87 proliferation at 10 uM, variant of 2-2",active
same,binding result,[6],binds
same,binding result,"[4]; saline with 0.1% albumin, variant of 2-2",binds
AGATTGCACTTACTATCT,binding result,"[1]; control primer, negative in double immunoblot at 100 nM and in pull-down",no binding
GGGCTGGGGTGACGT [B212],binding result,[5],binds
